These are yes or no findings as the source states them, for the method shown. For part of these data: In cells and extracts the contact can be indirect. Some binding calls cover weakened binding; strength is not graded here.
Legend:
GST-TIP60 fusion protein = GST-TIP60 fusion protein (UniProt Q92993); assay: pull-down; about 100 µg GST-TIP60 immobilised on 50 µL glutathione agarose (1 h, 4 °C), incubated with 100 µg Flag-KIAA1429 fusion protein and GST at 4 °C overnight; eluted with 10 mM glutathione pH 8.0; Western blot; both purified
SFB-Flag-TIP60 = SFB-Flag-TIP60 (UniProt Q92993); assay: co-IP; 293T cells transfected with KIAA1429 and SFB-Flag-TIP60 plasmids; IP lysis buffer; immunoprecipitation with anti-SFB agarose beads; Western blot for KIAA1429 and Flag
[1] = target: TIP60 (endogenous) (human (endogenous in HCC cells)) (UniProt Q92993); assay: co-IP; endogenous proteins in HCC cell lysates (IP lysis buffer, pre-cleared with protein A/G beads); protein A/G beads with anti-TIP60, anti-KIAA1429 or anti-IgG, 4 °C overnight; Western blot

Chains of the proteins cited; added tags and fusions are not shown.
UniProt Q92993: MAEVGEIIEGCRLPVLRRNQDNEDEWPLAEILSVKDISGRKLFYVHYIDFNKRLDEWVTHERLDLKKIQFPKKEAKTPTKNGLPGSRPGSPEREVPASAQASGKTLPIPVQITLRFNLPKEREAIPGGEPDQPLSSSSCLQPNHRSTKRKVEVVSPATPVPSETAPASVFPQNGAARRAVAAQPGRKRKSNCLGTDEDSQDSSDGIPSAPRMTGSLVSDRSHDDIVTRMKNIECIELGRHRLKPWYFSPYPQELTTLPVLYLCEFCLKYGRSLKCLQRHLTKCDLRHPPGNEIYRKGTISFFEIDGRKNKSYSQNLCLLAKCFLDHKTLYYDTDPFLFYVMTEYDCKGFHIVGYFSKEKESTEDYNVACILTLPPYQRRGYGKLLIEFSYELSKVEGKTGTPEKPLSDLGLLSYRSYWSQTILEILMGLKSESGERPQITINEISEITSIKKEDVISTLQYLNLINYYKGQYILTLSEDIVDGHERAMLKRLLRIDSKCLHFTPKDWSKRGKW
UniProt Q69YN4: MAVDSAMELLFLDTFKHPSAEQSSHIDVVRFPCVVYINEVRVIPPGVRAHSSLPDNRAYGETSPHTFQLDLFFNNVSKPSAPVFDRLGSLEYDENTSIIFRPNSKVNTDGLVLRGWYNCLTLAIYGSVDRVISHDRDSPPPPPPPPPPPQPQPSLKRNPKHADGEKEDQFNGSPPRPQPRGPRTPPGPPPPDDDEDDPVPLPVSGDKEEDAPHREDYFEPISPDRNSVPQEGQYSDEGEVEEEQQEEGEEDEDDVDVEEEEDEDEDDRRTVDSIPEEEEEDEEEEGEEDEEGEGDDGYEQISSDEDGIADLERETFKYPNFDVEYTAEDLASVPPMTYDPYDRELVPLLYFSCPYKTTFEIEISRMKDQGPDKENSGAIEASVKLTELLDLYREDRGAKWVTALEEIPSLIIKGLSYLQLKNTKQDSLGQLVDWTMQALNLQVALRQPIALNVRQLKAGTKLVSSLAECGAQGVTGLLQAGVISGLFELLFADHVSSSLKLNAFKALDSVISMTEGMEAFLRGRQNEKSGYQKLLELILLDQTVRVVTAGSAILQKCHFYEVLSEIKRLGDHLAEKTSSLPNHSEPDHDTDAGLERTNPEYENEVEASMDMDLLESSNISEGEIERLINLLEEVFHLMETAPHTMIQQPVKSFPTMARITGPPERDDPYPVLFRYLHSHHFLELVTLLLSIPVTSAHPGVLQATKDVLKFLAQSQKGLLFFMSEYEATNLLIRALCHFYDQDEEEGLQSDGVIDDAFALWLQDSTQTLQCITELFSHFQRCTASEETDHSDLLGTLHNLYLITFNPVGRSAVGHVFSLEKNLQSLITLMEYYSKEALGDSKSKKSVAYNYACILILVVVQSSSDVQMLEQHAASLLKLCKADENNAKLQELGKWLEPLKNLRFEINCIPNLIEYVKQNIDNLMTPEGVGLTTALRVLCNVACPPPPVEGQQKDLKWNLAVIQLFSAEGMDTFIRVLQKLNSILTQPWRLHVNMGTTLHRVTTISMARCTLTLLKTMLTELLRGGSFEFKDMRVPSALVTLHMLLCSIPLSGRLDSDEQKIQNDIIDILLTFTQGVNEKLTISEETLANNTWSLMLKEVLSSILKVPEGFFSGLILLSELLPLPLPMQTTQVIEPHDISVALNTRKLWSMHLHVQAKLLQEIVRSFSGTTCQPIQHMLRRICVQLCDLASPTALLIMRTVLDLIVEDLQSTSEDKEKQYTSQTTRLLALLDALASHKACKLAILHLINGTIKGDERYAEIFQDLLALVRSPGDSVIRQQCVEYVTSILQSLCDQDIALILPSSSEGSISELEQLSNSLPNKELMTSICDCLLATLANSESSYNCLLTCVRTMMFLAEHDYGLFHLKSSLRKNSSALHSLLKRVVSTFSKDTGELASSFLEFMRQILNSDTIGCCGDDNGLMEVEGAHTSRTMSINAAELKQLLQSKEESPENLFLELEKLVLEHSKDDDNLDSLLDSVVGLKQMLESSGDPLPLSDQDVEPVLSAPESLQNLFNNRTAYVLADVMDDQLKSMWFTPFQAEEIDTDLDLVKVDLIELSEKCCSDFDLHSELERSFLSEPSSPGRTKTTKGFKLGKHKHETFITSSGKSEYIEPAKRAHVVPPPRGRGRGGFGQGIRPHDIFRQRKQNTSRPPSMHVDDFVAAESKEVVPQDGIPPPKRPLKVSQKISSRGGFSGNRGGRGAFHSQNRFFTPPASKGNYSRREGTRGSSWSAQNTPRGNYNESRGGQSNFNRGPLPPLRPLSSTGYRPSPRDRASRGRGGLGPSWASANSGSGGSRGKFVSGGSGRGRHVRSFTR

Substance: Flag-KIAA1429 fusion protein (from UniProt Q69YN4 1-1812)
- binding (GST-TIP60 fusion protein): binds

Substance: KIAA1429 (expressed in 293T cells) (from UniProt Q69YN4 1-1812)
- binding (SFB-Flag-TIP60): binds

Substance: KIAA1429 (endogenous) (from UniProt Q69YN4 1-1812)
- binding [1]: binds
